Data from publication doi:10.1101/2022.03.13.484137.
These are yes or no findings as the source states them, for the method shown. Binding seen in cells or lysates may run through a third protein. These calls come from enrichment with a bait or labelling near it, and not all partners need be listed.

The chains behind the UniProt entries cited, without tags or fusion partners.
UniProt P46937: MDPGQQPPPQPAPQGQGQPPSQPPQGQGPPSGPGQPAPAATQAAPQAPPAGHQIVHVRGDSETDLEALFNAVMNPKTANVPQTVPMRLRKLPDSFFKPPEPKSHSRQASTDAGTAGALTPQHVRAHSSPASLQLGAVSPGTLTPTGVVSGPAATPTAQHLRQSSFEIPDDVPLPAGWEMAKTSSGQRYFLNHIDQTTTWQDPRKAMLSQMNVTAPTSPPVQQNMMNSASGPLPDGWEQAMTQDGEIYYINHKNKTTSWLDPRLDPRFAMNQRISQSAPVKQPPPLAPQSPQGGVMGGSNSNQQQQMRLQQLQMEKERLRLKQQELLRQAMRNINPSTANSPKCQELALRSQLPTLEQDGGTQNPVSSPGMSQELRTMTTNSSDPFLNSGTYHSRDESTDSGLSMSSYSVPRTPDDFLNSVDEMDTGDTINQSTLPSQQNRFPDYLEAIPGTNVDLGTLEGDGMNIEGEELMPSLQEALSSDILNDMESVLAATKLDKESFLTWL
UniProt P62140: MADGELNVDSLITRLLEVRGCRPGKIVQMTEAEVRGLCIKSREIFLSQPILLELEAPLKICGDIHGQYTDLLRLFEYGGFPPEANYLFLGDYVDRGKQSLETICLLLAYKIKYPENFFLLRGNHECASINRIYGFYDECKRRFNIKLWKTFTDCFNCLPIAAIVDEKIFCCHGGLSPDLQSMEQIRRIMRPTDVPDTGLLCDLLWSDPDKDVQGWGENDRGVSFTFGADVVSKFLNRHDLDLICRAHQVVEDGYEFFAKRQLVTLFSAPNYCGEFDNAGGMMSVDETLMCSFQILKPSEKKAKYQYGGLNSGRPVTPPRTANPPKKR
UniProt A6NKD9: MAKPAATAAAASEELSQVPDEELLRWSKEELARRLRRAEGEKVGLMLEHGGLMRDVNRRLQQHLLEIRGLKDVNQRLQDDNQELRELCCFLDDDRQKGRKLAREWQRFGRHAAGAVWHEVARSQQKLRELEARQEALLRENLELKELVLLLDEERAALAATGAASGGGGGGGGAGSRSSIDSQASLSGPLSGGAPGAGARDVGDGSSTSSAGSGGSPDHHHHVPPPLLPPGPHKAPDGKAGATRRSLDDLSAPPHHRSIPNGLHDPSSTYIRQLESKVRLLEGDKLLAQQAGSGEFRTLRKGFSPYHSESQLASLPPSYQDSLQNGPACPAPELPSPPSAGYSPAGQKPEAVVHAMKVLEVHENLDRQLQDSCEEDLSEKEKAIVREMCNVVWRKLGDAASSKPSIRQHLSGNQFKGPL
UniProt P31946: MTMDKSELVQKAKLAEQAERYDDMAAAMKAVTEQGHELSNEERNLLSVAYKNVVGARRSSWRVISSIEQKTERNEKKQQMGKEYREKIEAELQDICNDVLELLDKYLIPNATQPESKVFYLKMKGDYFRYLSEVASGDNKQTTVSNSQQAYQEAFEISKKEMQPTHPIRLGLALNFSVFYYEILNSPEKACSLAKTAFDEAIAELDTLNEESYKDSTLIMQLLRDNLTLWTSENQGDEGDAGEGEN
UniProt Q9UKB1: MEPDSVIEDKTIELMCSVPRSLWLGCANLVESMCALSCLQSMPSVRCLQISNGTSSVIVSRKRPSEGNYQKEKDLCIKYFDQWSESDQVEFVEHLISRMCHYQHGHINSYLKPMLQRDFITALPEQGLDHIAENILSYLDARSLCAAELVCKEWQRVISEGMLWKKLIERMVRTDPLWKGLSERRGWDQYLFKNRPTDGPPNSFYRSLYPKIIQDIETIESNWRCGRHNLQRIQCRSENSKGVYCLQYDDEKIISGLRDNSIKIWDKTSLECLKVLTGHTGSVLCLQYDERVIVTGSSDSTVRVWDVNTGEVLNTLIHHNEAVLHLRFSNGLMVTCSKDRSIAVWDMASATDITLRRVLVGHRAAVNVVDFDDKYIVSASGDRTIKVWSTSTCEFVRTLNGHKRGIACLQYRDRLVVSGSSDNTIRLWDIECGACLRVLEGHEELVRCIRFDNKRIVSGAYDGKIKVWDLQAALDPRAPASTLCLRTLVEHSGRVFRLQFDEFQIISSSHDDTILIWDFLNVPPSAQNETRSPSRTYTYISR
UniProt P36873: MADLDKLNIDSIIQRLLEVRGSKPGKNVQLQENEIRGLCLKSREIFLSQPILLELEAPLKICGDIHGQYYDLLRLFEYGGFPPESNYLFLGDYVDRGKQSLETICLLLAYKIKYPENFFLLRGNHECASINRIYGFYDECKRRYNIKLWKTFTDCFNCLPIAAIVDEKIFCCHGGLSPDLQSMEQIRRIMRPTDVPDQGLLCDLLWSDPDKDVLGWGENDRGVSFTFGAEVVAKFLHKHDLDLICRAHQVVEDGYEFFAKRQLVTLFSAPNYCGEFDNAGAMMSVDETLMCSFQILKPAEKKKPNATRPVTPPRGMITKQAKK
UniProt Q9Y2J4: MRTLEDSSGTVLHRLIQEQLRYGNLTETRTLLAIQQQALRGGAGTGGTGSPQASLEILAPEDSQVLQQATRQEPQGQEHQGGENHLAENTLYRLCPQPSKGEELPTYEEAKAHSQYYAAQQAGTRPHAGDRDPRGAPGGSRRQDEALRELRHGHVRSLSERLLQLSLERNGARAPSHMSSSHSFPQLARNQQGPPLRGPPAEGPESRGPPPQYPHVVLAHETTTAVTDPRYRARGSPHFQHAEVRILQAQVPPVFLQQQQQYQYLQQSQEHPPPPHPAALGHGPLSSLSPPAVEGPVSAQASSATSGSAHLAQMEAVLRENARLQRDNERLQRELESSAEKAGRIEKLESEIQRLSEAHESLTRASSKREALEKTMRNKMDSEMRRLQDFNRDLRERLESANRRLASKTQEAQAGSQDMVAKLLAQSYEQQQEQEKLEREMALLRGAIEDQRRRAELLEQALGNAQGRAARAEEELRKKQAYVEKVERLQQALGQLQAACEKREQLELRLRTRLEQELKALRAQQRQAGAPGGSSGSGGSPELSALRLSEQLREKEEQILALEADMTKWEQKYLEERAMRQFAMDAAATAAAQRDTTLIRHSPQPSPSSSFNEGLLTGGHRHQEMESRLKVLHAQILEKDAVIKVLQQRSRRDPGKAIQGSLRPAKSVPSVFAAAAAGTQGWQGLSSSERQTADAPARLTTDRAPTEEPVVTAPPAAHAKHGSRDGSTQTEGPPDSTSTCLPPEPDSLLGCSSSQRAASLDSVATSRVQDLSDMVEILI

Columns and labels:
[1] = target: N terminal Strep-HA-tagged YAP1 (human) (UniProt P46937); assay: affinity purification with mass spectrometry
[2] = target: N terminal Strep-HA-tagged YAP1 (human) (UniProt P46937); assay: affinity purification with mass spectrometry + native gel or EMSA

Row | Substance | binding [1] | binding [2]
1 | PPP1CB (from UniProt P62140 1-327) | binds | –
2 | CCDC85C (from UniProt A6NKD9 1-419) | binds | –
3 | 1433B (from UniProt P31946 1-246) | binds | –

The next lines start with the values.

Row | binding [1] | binding [2] | Substance
4 | binds | – | FBXW11 (from UniProt Q9UKB1 1-542)
5 | binds | – | PPP1CC (from UniProt P36873 1-323)
6 | – | binds | AMOTL2 (from UniProt Q9Y2J4 1-779)
